Measured data: PubChem BioAssay AID686937 (Drosophila RNAi Screening Center, 2013)
The deposit covers about 23,000 reagents; shown is a random part of those with a known target gene and a result. 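Reduced-secretion tags in replicate 1 do not always agree with the z-scores; no criterion for assigning the tags was given.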 Names joined by + are all predicted targets of the reagent. Further read-outs or replicates are left out here. The record does not give: the amount of reagent.

Aim: 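Genes in the fly needed for secretion of protein constitutively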 (primary screen)
Cells: Drosophila S2 cells expressing secreted horseradish peroxidase
Reagent: long dsRNA against Drosophila genes
Time to read-out: about 5.5 days (5 days dsRNA, then 12 h reporter induction)
Treatment: reporter expression induced after 5 days of dsRNA, read 12 h later; inducer not stated
Measured: 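After 5 days of dsRNA and 12 h of reporter induction, medium peroxidase read by chemiluminescence and scored as per-plate z-score; higher values mean more reporter released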
Direction: z-score: higher = more reporter secreted into medium

cmb [DRSC09790] | z-score, replicate 1: 0.19
Taf4 [DRSC11297] | z-score, replicate 1: -1.1
Ugt302E1 [DRSC15635] | z-score, replicate 1: 0.28
CG5819 [DRSC04520] | z-score, replicate 1: 0.59
squ [DRSC01549] | z-score, replicate 1: 0.4
CG43108 [DRSC05654] | z-score, replicate 1: 0.19
Cyp12b2 [DRSC07364] | z-score, replicate 1: 0.2
CG13160 [DRSC06284] | z-score, replicate 1: 0.59
Sec71 [DRSC01893] | z-score, replicate 1: -0.97
CG4281 [DRSC18521] | z-score, replicate 1: 0.73
Tsp42Eo [DRSC06184] | z-score, replicate 1: 0.33
EMC2B [DRSC15506] | z-score, replicate 1: -0.12
CG13443 [DRSC06403] | z-score, replicate 1: 0.74
cindr [DRSC14126] | z-score, replicate 1: 0.11
cindr [DRSC14298] | z-score, replicate 1: -0.13
CG13306 [DRSC09976] | z-score, replicate 1: 0.17
CG12728 [DRSC17883] | z-score, replicate 1: 0.4
CG6191 [DRSC05938] | z-score, replicate 1: 0.3
CG4210 [DRSC15551] | z-score, replicate 1: -0.18
CG9592 [DRSC11078] | z-score, replicate 1: -0.24
eIF2A [DRSC11825] | z-score, replicate 1: 0.46
spz6 [DRSC04533] | z-score, replicate 1: -0.18
CG7691 [DRSC16287] | z-score, replicate 1: 0.09
CG32181 [DRSC22635] | z-score, replicate 1: 0.08
Ge-1 [DRSC02938] | z-score, replicate 1: 0.7
CG13082 [DRSC02186] | z-score, replicate 1: 0.27
He + NimB5 [DRSC22876] | z-score, replicate 1: 0.24
CG31407 [DRSC12761] | z-score, replicate 1: 0.42
CG32037 [DRSC10363] | z-score, replicate 1: 0.46
CG13033 [DRSC09913] | z-score, replicate 1: 0.5
ebd1 [DRSC08565] | z-score, replicate 1: -0.18
CG12126 [DRSC06103] | z-score, replicate 1: -0.01
AGBE [DRSC06861] | z-score, replicate 1: 0.4
CG31752 [DRSC22599] | z-score, replicate 1: -0.49
CG33109 [DRSC16533] | z-score, replicate 1: 0.16
Clp [DRSC00746] | z-score, replicate 1: -0.45
CG9667 [DRSC16535] | z-score, replicate 1: -1.87
Lsp1gamma [DRSC08672] | z-score, replicate 1: 0.08
CG3829 [DRSC04423] | z-score, replicate 1: 0.23
CG16852 [DRSC01876] | z-score, replicate 1: -0.2

In a second layout: entries from further up.
predicted target	DRSC id	z-score, replicate 1
AGBE	DRSC06861	0.4
CG31752	DRSC22599	-0.49
CG33109	DRSC16533	0.16
